Reference: patent publication US5955579
For at least one entry, the source does not settle the construct or the ends of the probe. At least one result comes from cells or an extract, where the contact may be indirect. For some assays here: No signal at the amounts used counts as a negative.

Assays:
[1] = system: HeLa cell nuclear extract (Homo sapiens); test: EMSA; details: 5 ug nuclear extract; no FLAT-binding species similar to HoxB13; protein in an extract
[2] = system: RIN cell nuclear extract (FLAT-binding species) (Rattus norvegicus); test: EMSA; details: 5 ug nuclear extract; shift similar to HoxB13; competed by unlabeled FLAT; protein in an extract

GATCCCCTTGTTAATAATCTAATTACCCTAGG / GATCCCTAGGGTAATTAGATTATTAACAAGGG [FLAT element probe]
binding result [1]: no binding | binding result [2]: binds
